This is one part of the list.
What was measured:
Test in all cases: log2 fold change, soluble protein after heating vs DMSO (PISA); higher = thermal stabilisation; K562 lysate, 10 uM; active = over 0.2 and 3.5 SD of the protein, either way, in both replicates (recomputed)
[1] = compound: NCC(=O)Nc1ccc(-n2nc(C(F)(F)F)cc2-c2ccc3c(ccc4ccccc43)c2)cc1
Method in brief: (§1)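 To prepare the extract, K562 pellets were dounce-homogenised in PBS pH 7.4 with 1 mM MgCl2, giving crude material at 1 mg/mL protein. This was treated with 10 μM compound for 30 min, then heated in aliquots for 3 min over 48°C-58°C before pooling and addition of NP-40 to 0.5% at 4°C. Centrifugation at 21,000xg for 90 min left soluble protein in the supernatant, which TMTpro 16plex LC-MS/MS quantified with equalised channel sums. Results are log-two fold changes in thermal stability compared with solvent controls, from duplicates.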

Protein sequences, listed by entry. Tags and fused reporters are not part of them. Lines headed by an entry give the natural chain unless they say otherwise; changes in a name come on top.
UniProt P23786: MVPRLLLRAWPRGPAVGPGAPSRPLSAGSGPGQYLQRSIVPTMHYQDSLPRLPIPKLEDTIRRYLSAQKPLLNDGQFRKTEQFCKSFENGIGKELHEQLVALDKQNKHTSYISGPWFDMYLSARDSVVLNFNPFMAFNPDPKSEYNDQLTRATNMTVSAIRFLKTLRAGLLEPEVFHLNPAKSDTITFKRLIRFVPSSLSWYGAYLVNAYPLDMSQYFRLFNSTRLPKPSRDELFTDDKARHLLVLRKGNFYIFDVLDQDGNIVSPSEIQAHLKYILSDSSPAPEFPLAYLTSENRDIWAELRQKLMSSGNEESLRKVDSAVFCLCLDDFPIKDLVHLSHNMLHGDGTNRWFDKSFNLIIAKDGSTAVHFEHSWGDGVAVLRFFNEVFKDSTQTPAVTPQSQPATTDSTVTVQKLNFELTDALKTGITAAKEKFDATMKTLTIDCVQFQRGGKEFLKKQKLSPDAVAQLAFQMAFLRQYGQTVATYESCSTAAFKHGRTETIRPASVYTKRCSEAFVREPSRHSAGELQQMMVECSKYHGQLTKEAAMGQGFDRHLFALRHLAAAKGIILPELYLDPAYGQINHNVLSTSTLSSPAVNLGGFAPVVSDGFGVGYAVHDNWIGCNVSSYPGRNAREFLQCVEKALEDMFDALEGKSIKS
UniProt Q9UFF9, whole entry, looked up: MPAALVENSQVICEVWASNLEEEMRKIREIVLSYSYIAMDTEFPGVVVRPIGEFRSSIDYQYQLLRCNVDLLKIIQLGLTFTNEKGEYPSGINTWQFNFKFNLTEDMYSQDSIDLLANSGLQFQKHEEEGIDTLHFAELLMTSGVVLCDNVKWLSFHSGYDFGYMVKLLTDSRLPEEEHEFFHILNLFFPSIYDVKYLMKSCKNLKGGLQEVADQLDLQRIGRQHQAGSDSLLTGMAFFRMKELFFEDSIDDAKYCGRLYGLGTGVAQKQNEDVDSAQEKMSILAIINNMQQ
UniProt Q96BR5: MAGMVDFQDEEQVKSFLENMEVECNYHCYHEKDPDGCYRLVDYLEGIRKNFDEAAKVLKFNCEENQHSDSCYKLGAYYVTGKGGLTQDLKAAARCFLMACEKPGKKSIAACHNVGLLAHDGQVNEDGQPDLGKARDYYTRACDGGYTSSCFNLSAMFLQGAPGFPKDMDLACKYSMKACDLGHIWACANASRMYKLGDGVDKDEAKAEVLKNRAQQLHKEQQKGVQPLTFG
UniProt P38432, whole entry, looked up: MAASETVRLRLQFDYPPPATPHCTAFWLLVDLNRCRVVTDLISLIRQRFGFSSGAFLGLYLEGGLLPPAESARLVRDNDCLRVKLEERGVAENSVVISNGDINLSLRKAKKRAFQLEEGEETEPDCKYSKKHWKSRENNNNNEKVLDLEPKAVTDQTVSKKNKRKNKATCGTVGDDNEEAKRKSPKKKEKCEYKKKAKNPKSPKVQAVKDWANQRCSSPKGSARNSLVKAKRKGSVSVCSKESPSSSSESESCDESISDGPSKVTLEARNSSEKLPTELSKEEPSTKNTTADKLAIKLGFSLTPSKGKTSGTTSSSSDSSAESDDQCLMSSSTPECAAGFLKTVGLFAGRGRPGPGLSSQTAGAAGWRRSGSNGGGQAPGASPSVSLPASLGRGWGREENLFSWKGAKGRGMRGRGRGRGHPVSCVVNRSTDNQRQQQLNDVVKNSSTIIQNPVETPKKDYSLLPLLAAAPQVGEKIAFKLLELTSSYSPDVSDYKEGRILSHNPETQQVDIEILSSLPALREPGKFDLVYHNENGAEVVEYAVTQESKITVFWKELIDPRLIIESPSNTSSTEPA
UniProt Q86WW8: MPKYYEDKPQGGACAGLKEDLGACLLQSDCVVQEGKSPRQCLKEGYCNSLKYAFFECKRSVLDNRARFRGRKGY
UniProt Q9Y6N1: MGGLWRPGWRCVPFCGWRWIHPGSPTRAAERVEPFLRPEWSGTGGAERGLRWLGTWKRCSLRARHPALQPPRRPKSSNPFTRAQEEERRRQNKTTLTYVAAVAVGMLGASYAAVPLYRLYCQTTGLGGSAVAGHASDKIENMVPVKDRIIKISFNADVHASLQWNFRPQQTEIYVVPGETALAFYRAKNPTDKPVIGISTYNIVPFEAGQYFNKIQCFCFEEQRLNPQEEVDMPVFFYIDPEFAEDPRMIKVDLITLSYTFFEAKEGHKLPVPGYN
UniProt Q8N8Q8: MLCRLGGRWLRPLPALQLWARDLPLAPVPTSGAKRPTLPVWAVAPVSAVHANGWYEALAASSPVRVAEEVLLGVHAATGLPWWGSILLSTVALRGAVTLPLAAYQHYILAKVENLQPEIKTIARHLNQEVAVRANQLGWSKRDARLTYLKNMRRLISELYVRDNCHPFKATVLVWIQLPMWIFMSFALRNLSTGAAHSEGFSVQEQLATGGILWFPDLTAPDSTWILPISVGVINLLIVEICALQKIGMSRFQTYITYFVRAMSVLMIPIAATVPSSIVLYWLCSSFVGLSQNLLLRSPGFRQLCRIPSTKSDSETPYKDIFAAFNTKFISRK
UniProt O95628: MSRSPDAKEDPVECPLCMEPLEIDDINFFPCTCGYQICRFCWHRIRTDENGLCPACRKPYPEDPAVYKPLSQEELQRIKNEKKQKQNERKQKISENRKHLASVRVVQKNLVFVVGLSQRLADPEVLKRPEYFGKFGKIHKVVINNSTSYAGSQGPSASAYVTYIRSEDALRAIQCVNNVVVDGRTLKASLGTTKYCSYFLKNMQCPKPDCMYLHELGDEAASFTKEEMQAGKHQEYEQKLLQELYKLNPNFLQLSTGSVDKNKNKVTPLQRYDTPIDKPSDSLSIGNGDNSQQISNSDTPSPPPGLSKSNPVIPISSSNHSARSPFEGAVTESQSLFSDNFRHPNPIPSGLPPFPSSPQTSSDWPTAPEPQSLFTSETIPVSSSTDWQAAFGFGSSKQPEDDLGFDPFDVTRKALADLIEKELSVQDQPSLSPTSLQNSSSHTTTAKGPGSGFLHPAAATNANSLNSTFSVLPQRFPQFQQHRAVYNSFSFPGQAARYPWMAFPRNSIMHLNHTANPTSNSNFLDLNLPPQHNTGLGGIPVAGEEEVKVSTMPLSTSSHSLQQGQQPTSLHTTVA
UniProt Q9BSW2: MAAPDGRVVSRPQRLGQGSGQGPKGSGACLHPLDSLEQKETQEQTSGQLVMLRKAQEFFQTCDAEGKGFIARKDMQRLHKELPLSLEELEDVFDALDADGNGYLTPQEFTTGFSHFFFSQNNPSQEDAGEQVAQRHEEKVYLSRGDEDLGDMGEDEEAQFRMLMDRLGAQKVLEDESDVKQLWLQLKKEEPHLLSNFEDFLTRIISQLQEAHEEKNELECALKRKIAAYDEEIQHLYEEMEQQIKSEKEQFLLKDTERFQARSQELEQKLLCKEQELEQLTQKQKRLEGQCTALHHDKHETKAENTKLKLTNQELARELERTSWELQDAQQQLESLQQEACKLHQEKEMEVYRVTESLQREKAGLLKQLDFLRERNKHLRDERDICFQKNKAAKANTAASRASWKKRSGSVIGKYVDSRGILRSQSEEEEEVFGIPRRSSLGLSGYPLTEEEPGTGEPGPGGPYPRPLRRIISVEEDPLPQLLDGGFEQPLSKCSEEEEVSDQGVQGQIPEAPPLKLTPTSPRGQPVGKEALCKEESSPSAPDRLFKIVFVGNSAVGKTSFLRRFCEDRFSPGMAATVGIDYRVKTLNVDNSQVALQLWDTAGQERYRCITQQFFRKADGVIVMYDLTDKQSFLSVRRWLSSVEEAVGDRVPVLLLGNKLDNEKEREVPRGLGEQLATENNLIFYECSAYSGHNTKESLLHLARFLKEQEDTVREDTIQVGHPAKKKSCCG
UniProt Q9Y2V7: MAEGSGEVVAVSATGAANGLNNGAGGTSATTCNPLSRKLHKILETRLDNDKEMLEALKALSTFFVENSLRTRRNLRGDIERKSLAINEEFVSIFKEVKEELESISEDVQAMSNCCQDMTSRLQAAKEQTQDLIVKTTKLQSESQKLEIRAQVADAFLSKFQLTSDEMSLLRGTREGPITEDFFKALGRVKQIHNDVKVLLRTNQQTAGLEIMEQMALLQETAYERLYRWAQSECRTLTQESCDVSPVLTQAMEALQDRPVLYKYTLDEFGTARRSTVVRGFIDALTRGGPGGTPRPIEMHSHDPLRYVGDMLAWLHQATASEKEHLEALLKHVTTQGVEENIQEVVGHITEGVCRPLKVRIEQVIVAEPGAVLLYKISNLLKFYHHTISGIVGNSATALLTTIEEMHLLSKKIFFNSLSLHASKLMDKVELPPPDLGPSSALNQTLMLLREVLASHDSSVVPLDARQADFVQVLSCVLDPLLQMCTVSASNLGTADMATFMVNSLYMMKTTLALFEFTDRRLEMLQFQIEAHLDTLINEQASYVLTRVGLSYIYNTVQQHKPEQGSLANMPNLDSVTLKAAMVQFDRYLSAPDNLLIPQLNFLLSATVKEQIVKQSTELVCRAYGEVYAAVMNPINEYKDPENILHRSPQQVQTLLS
UniProt Q9BRF8, whole entry, looked up: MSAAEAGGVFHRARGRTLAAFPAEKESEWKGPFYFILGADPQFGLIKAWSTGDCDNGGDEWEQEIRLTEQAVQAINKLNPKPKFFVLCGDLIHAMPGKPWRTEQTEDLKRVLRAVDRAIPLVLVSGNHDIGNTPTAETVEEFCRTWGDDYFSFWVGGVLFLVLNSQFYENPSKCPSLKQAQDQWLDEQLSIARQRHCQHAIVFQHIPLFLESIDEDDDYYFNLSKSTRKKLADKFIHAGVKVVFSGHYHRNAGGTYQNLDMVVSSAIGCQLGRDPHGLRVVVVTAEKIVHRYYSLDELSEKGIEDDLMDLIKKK
UniProt Q9H9Q2: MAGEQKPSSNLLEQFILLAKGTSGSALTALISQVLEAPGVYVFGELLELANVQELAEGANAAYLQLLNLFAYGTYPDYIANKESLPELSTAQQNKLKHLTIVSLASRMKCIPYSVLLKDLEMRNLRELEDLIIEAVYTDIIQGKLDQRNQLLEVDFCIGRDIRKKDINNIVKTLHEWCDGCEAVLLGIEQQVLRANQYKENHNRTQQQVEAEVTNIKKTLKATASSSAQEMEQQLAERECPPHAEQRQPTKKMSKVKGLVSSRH
UniProt P21964: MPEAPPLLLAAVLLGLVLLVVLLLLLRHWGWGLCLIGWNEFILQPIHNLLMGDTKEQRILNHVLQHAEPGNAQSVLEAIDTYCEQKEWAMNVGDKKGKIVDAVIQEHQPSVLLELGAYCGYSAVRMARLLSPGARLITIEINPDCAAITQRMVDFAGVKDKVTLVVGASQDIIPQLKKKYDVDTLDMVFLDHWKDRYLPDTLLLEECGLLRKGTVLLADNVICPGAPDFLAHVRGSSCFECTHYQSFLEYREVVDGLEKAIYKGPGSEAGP
UniProt O75175, whole entry, looked up: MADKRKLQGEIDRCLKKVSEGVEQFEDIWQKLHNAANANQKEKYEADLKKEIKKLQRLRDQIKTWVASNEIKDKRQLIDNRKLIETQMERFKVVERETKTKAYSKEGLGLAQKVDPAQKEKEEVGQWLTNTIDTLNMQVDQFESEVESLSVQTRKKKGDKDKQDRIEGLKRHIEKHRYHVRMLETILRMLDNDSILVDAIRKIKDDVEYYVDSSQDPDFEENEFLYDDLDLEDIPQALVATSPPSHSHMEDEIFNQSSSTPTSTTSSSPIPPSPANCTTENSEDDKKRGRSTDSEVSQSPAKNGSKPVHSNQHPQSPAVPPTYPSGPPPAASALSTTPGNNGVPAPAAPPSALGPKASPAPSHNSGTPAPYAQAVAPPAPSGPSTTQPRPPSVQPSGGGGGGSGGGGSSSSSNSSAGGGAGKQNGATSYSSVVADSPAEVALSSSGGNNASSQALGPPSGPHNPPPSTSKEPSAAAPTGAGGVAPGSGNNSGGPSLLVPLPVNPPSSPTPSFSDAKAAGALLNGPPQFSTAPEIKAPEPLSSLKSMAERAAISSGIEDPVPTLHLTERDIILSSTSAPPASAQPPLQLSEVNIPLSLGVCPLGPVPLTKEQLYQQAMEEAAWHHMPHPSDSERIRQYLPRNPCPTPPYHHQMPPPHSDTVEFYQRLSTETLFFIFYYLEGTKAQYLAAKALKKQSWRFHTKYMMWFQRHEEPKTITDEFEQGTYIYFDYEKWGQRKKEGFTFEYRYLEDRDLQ
UniProt Q9BT09: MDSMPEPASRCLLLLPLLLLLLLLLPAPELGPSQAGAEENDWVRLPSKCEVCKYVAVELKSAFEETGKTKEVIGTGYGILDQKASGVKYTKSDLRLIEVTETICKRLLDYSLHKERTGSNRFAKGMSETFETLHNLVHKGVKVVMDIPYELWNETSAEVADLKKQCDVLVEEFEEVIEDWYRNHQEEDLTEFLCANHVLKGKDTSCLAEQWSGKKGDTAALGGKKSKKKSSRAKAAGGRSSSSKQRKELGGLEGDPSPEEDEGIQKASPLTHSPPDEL
UniProt Q9UIV1, whole entry, looked up: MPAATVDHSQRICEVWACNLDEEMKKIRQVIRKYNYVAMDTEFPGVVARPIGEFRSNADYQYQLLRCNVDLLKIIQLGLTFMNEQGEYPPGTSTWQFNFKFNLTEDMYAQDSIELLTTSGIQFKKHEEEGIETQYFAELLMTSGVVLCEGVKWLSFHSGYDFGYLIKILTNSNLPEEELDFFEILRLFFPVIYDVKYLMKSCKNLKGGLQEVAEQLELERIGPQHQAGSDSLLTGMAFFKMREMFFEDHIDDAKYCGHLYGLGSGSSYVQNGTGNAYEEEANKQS

vorinostat = compound: O=C(CCCCCCC(=O)Nc1ccccc1)NO [vorinostat]
Method in brief: as §1

silmitasertib = compound: O=C(O)c1ccc2c(c1)nc(Nc1cccc(Cl)c1)c1ccncc12 [silmitasertib]
Method in brief: as §1

[2] = compound: O=C1NC(=O)C(c2cnc3ccccn23)=C1c1cn2c3c(cc(F)cc13)CN(C(=O)N1CCCCC1)CC2
Method in brief: as §1

entospletinib = compound: c1cn2cc(-c3ccc4cn[nH]c4c3)nc(Nc3ccc(N4CCOCC4)cc3)c2n1 [entospletinib]
Method in brief: as §1

Measured: log2 fold change

COL15A1 (UniProt P39059)
inactive: [1] -0.062 | vorinostat 0.051 | silmitasertib -0.082 | [2] 0.006 | entospletinib 0.125

COX19 (UniProt Q49B96)
inactive: [1] -0.059 | vorinostat 0.073 | silmitasertib -0.043 | [2] 0.038 | entospletinib -0.08

COPB1 (UniProt P53618)
inactive: [1] 0.006 | vorinostat 0.008 | silmitasertib -0.016 | [2] -0.001 | entospletinib 0.018

CPT2 (UniProt P23786)
inactive: [1] -0.036 | vorinostat -0.039 | silmitasertib 0.048 | [2] 0.042 | entospletinib 0.006

COPB2 (UniProt P35606)
inactive: [1] 0 | vorinostat 0.067 | silmitasertib -0.016 | [2] -0.01 | entospletinib 0.007

CNOT8 (UniProt Q9UFF9)
inactive: [1] 0.013 | vorinostat -0.093 | silmitasertib 0.043 | [2] -0.034 | entospletinib -0.017

COA7 (UniProt Q96BR5)
inactive: [1] 0.003 | vorinostat 0.079 | silmitasertib -0.023 | [2] -0.011 | entospletinib -0.041

COX20 isoform 2 (UniProt Q5RI15)
inactive: [1] -0.016 | vorinostat -0.079 | silmitasertib 0.011 | [2] -0.037 | entospletinib 0.026

COL6A5 (UniProt A8TX70)
inactive: [1] 0.281 | vorinostat 0.011 | silmitasertib -0.003 | [2] 0.022 | entospletinib 0.009

CPED1 (UniProt A4D0V7)
inactive: [1] 0.025 | vorinostat -0.05 | silmitasertib 0.033 | [2] 0.031 | entospletinib 0

COIL (UniProt P38432)
inactive: [1] -0.137 | vorinostat -0.182 | silmitasertib -0.035 | [2] -0.03 | entospletinib 0.006

COPS8 (UniProt Q99627)
inactive: [1] -0.115 | vorinostat 0.061 | silmitasertib -0.034 | [2] -0.019 | entospletinib -0.05

COG5 isoform 2 (UniProt Q9UP83)
inactive: [1] -0.005 | silmitasertib 0.073 | [2] -0.029 | entospletinib 0.038
active: vorinostat -0.342

Fetched one by one from above, 3 records:
COPS8 (UniProt Q99627)
inactive: [1] -0.115 | vorinostat 0.061 | silmitasertib -0.034 | [2] -0.019 | entospletinib -0.05

CPED1 (UniProt A4D0V7)
inactive: [1] 0.025 | vorinostat -0.05 | silmitasertib 0.033 | [2] 0.031 | entospletinib 0

COIL (UniProt P38432)
inactive: [1] -0.137 | vorinostat -0.182 | silmitasertib -0.035 | [2] -0.03 | entospletinib 0.006

Next part.

COA4 isoform 2 (UniProt Q9NYJ1)
inactive: [1] -0.108 | vorinostat 0.186 | silmitasertib -0.118 | [2] 0.079 | entospletinib -0.038

COL18A1 (UniProt P39060)
inactive: [1] -0.147 | vorinostat 0.134 | silmitasertib 0.015 | [2] -0.018 | entospletinib 0.027

COA5 (UniProt Q86WW8)
inactive: [1] 0 | vorinostat -0.015 | silmitasertib -0.065 | [2] 0.011 | entospletinib -0.013

COA6 isoform 2 (UniProt Q5JTJ3)
inactive: [1] -0.06 | vorinostat 0.103 | silmitasertib -0.146 | [2] 0.031 | entospletinib 0.075

COPS2 isoform 2 (UniProt P61201)
inactive: [1] -0.022 | vorinostat 0.021 | silmitasertib 0.008 | [2] 0.021 | entospletinib 0.016

CPOX (UniProt P36551)
inactive: [1] 0.017 | vorinostat 0.136 | silmitasertib 0.09 | [2] -0.002 | entospletinib 0.015

CPSF3 (UniProt Q9UKF6)
inactive: [1] -0.037 | vorinostat -0.038 | silmitasertib 0.036 | [2] -0.042 | entospletinib 0.033

COL12A1 (UniProt Q99715)
inactive: [1] 0.29 | vorinostat 0.037 | silmitasertib -0.079 | [2] 0.908 | entospletinib -0.036

COX11 (UniProt Q9Y6N1)
inactive: [1] 0.027 | vorinostat 0.123 | silmitasertib -0.089 | [2] 0.005 | entospletinib 0

CPD (UniProt O75976)
inactive: [1] -0.005 | vorinostat 0.13 | silmitasertib -0.028 | [2] -0.008 | entospletinib 0.005

COX7A2L (UniProt O14548)
inactive: [1] -0.095 | vorinostat 0.119 | silmitasertib -0.095 | [2] 0.02 | entospletinib -0.009

CNOT6 (UniProt Q9ULM6)
inactive: [1] -0.031 | vorinostat -0.122 | silmitasertib -0.004 | [2] -0.046 | entospletinib -0.002

COX5B (UniProt P10606)
inactive: [1] -0.06 | vorinostat 0.28 | silmitasertib -0.064 | [2] 0.043 | entospletinib -0.051

CPT1A (UniProt P50416)
active: vorinostat 0.406
inactive: [1] -0.033 | silmitasertib -0.001 | [2] -0.002 | entospletinib -0.06

COPS6 (UniProt Q7L5N1)
inactive: [1] -0.17 | vorinostat 0.028 | silmitasertib 0.049 | [2] 0.005 | entospletinib 0

COX18 (UniProt Q8N8Q8)
inactive: [1] 0.019 | vorinostat 0.079 | silmitasertib -0.006 | [2] -0.003 | entospletinib -0.135

CNOT4 isoform 6 (UniProt O95628)
inactive: [1] -0.028 | vorinostat 0.046 | silmitasertib -0.032 | [2] -0.057 | entospletinib -0.011

CNOT11 (UniProt Q9UKZ1)
inactive: [1] -0.008 | vorinostat -0.178 | silmitasertib 0.027 | [2] 0.022 | entospletinib -0.01

CRACR2A isoform 2 (UniProt Q9BSW2)
inactive: [1] 0.022 | vorinostat -0.086 | silmitasertib 0.019 | [2] 0.073 | entospletinib -0.065

CORO1B (UniProt Q9BR76)
inactive: [1] 0 | vorinostat -0.142 | silmitasertib 0.013 | [2] -0.004 | entospletinib 0.013

CNN1 (UniProt P51911)
inactive: [1] -0.014 | vorinostat -0.013 | silmitasertib -0.005 | [2] -0.005 | entospletinib 0.045

COG6 (UniProt Q9Y2V7)
active: vorinostat -0.254
inactive: [1] 0.021 | silmitasertib 0.072 | [2] 0.09 | entospletinib 0.026

CNST (UniProt Q6PJW8)
inactive: [1] 0.051 | vorinostat 0.056 | silmitasertib -0.028 | [2] -0.067 | entospletinib -0.024

CPPED1 (UniProt Q9BRF8)
inactive: [1] 0.014 | vorinostat 0.053 | silmitasertib 0.009 | [2] -0.041 | entospletinib -0.01

COPS7B isoform 3 (UniProt Q9H9Q2)
inactive: [1] 0.144 | vorinostat 0.065 | silmitasertib -0.003 | [2] 0.076 | entospletinib -0.017

CORO2A (UniProt Q92828)
inactive: [1] -0.059 | vorinostat -0.049 | silmitasertib 0.058 | [2] -0.05 | entospletinib 0.042

COMMD2 (UniProt Q86X83)
inactive: [1] 0.031 | vorinostat -0.026 | silmitasertib -0.005 | [2] -0.05 | entospletinib -0.033

CPS1 isoform 3 (UniProt P31327)
inactive: [1] 0.093 | vorinostat 0.049 | silmitasertib -0.15 | [2] 0.027 | entospletinib -0.062

COG8 (UniProt Q96MW5)
inactive: [1] 0.05 | vorinostat 0.09 | silmitasertib -0.077 | [2] -0.003 | entospletinib 0.125

CPNE1 (UniProt Q99829)
inactive: [1] -0.02 | vorinostat -0.019 | silmitasertib 0.011 | [2] 0 | entospletinib -0.004

CNNM3 (UniProt Q8NE01)
inactive: [1] 0.038 | vorinostat 0.123 | silmitasertib 0.005 | [2] 0.007 | entospletinib 0.028

CPSF2 (UniProt Q9P2I0)
inactive: [1] -0.001 | vorinostat -0.123 | silmitasertib -0.004 | [2] -0.01 | entospletinib -0.009

CNDP2 (UniProt Q96KP4)
inactive: [1] 0.023 | vorinostat 0.133 | silmitasertib -0.025 | [2] -0.008 | entospletinib 0.01

COX5A (UniProt P20674)
inactive: [1] -0.075 | vorinostat 0.29 | silmitasertib -0.041 | [2] 0 | entospletinib -0.028

COTL1 (UniProt Q14019)
inactive: [1] -0.03 | vorinostat 0.147 | silmitasertib 0 | [2] -0.021 | entospletinib 0.023

COMT (UniProt P21964)
active: vorinostat -0.294
inactive: [1] -0.106 | silmitasertib 0.04 | [2] 0.007 | entospletinib 0.015

COPRS (UniProt Q9NQ92)
inactive: [1] -0.004 | vorinostat 0.003 | silmitasertib 0.014 | [2] -0.052 | entospletinib 0.046

CNOT3 (UniProt O75175)
inactive: [1] 0.027 | vorinostat -0.088 | silmitasertib -0.009 | [2] 0.026 | entospletinib -0.046

CNPY3 (UniProt Q9BT09)
inactive: [1] -0.072 | vorinostat 0.035 | silmitasertib 0.045 | [2] -0.004 | entospletinib 0.024

CNOT6L (UniProt Q96LI5)
inactive: [1] 0.019 | vorinostat -0.032 | silmitasertib 0.004 | [2] 0.017 | entospletinib 0

CNOT7 (UniProt Q9UIV1)
inactive: [1] 0.012 | vorinostat -0.17 | silmitasertib -0.019 | [2] 0.028 | entospletinib 0.003
